{"source": "PubChem BioAssay AID504744 (Drosophila RNAi Screening Center, 2011)", "purpose": "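Identify dsRNAs that increase or decrease phospho-dAkt after insulin treatment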 (primary screen)", "cell system": "Drosophila Kc167 cells", "reagent": "long dsRNA against Drosophila genes, 250 ng dsRNA per well of a 384-well plate", "timing": "3 days of knock-down, then overnight serum-free starvation before stimulation", "treatment": "bovine insulin at 387 nM for 10 minutes after 12 h without serum", "measured": "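In-cell antibody fluorescence for phospho-dAkt in each well over DNA-dye signal, with log2 residuals expressed as z-scores adjusted for cell count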", "hit rule": "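Hit in the insulin screen when the two-replicate mean z-score is more extreme than plus or minus 2.5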", "note": "The deposit covers about 23,000 reagents; shown is an unselected part of those with a known target gene and a result. Over the whole deposit, 98 (0.43%) got an active call. 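Only hit calls are given; the phospho-dAkt signals, z-scores and hit direction were not deposited.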 Reagents against one gene are numbered here. Reagent sequences are not shown."}
{"Target gene": "ITP", "dsRNA no.": 1, "call": "inactive"}
{"Target gene": "CG9628", "dsRNA no.": 1, "call": "inactive"}
{"Target gene": "CG42540", "dsRNA no.": 1, "call": "inactive"}
{"Target gene": "CG42540", "dsRNA no.": 2, "call": "inactive"}
{"Target gene": "CG42540", "dsRNA no.": 3, "call": "inactive"}
{"Target gene": "nullo", "dsRNA no.": 1, "call": "inactive"}
{"Target gene": "CG15414", "dsRNA no.": 1, "call": "inactive"}
{"Target gene": "CG15414", "dsRNA no.": 2, "call": "inactive"}
{"Target gene": "CG6628", "dsRNA no.": 1, "call": "inactive"}
{"Target gene": "Tab2", "dsRNA no.": 1, "call": "inactive"}
{"Target gene": "Nuak", "dsRNA no.": 1, "call": "inactive"}
{"Target gene": "Nuak", "dsRNA no.": 2, "call": "inactive"}
{"Target gene": "Nuak", "dsRNA no.": 3, "call": "inactive"}
{"Target gene": "Pgant1", "dsRNA no.": 1, "call": "inactive"}
{"Target gene": "Klp98A", "dsRNA no.": 1, "call": "inactive"}
{"Target gene": "Klp98A", "dsRNA no.": 2, "call": "inactive"}
{"Target gene": "Col4a1", "dsRNA no.": 1, "call": "inactive"}
{"Target gene": "CG15207 (retired record)", "dsRNA no.": 1, "call": "inactive"}
{"Target gene": "CG15207 (retired record)", "dsRNA no.": 2, "call": "inactive"}
{"Target gene": "CG10383", "dsRNA no.": 1, "call": "inactive"}
{"Target gene": "Ir94d", "dsRNA no.": 1, "call": "inactive"}
{"Target gene": "wg", "dsRNA no.": 1, "call": "inactive"}
{"Target gene": "ana2", "dsRNA no.": 1, "call": "inactive"}
{"Target gene": "CG18132", "dsRNA no.": 1, "call": "inactive"}
{"Target gene": "CG33642", "dsRNA no.": 1, "call": "inactive"}
{"Target gene": "mop", "dsRNA no.": 1, "call": "inactive"}
{"Target gene": "CG1468", "dsRNA no.": 1, "call": "inactive"}
{"Target gene": "HmgZ", "dsRNA no.": 1, "call": "inactive"}
{"Target gene": "HmgZ", "dsRNA no.": 2, "call": "inactive"}
{"Target gene": "atos", "dsRNA no.": 1, "call": "inactive"}
{"Target gene": "CG15382", "dsRNA no.": 1, "call": "inactive"}
{"Target gene": "CG8888", "dsRNA no.": 1, "call": "inactive"}
{"Target gene": "CG8888", "dsRNA no.": 2, "call": "inactive"}
{"Target gene": "CG10505", "dsRNA no.": 1, "call": "inactive"}
{"Target gene": "side-III", "dsRNA no.": 1, "call": "inactive"}
{"Target gene": "side-III", "dsRNA no.": 2, "call": "inactive"}
{"Target gene": "side-III", "dsRNA no.": 3, "call": "inactive"}
{"Target gene": "CG13800 (retired record)", "dsRNA no.": 1, "call": "inactive"}
{"Target gene": "CG32388", "dsRNA no.": 1, "call": "inactive"}

Single entries from above:
ITP, call: inactive
Entry for nullo under “call”: inactive
Entry for side-III #1 in “call”: inactive
Under “call”, CG1468 reads inactive
Result for CG8888 #2 under “call”: inactive
Entry of ana2 under “call”: inactive
